Results on 3 substances are retold here after PMC3064656.

By UniProt entry, the sequences of proteins in these tests, tags left out.
UniProt P70605: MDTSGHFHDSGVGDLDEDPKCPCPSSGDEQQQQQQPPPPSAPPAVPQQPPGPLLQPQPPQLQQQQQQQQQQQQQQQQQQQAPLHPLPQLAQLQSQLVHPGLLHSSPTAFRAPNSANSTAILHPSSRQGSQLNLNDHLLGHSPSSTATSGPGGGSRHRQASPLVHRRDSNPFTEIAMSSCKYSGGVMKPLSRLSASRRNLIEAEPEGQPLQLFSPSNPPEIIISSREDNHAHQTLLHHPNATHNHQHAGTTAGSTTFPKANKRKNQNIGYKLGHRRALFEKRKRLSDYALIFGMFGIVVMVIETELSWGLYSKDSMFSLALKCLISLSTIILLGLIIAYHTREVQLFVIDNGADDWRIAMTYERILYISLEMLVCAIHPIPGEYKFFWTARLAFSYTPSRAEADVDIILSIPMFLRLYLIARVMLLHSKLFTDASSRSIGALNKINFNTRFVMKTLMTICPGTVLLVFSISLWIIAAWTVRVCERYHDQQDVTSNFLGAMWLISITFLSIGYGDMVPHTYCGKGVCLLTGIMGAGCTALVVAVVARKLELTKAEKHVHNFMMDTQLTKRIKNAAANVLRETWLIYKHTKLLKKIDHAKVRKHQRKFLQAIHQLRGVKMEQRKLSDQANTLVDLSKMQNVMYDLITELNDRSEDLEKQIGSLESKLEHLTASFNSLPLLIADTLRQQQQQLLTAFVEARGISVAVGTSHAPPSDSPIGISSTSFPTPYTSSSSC
UniProt O08816: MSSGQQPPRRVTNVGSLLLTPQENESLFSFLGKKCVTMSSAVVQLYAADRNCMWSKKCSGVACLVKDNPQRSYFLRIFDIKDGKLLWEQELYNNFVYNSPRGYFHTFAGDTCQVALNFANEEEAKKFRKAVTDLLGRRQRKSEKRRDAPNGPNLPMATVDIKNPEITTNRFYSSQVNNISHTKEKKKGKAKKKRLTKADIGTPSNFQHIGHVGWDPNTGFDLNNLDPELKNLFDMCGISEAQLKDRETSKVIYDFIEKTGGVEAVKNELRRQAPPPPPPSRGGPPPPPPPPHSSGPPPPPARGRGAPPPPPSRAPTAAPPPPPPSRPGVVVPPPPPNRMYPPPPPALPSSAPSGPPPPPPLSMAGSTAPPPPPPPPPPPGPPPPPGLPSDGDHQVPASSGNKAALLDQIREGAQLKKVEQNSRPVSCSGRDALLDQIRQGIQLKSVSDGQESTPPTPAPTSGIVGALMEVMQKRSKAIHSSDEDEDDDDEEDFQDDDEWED

Results are given in words; binding and its absence hold for the method and conditions named. In cells and extracts the contact can be indirect. Some binding calls cover weakened binding; strength is not graded here. For part of these data: Where a sequence is shown, tags or fusion partners need not be part of it.

Test [1] has as its target SK3 channel (rat (endogenous in rat brain)) (UniProt P70605). The experiment in a line: co-IP; magnetic beads loaded with SK3 channel antibodies; precipitate from rat brain; Abi-1 and nWASP detected in the precipitate.
In test [2] the target is T1, Abi-1 SH3 domain fusion protein (UniProt Q9QZM5).
T1 sequence: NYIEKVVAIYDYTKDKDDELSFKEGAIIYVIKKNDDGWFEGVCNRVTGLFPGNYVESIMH
Kind of test: co-IP; co-transfected COS7 cells, lysate; protein immobilized on µMACS Micro beads coupled with the specific antibodies.

For “Abelson interacting protein 1 (from UniProt Q9QZM5 1-476)”, the binding entry in test [1] is “binds”.
As for “full length SK3 channel protein (transfected) (from UniProt P70605 1-732)”, the binding result in test [2] is “binds”.
Turning to “neural Wiskott Aldrich Syndrome Protein (from UniProt O08816 1-501)”, the binding result in test [1] is listed as “binds”.
